This test addresses T1, HA-PKCμ (amino-terminal hemagglutinin epitope-tagged PKCμ) (UniProt Q15139).
T1 sequence: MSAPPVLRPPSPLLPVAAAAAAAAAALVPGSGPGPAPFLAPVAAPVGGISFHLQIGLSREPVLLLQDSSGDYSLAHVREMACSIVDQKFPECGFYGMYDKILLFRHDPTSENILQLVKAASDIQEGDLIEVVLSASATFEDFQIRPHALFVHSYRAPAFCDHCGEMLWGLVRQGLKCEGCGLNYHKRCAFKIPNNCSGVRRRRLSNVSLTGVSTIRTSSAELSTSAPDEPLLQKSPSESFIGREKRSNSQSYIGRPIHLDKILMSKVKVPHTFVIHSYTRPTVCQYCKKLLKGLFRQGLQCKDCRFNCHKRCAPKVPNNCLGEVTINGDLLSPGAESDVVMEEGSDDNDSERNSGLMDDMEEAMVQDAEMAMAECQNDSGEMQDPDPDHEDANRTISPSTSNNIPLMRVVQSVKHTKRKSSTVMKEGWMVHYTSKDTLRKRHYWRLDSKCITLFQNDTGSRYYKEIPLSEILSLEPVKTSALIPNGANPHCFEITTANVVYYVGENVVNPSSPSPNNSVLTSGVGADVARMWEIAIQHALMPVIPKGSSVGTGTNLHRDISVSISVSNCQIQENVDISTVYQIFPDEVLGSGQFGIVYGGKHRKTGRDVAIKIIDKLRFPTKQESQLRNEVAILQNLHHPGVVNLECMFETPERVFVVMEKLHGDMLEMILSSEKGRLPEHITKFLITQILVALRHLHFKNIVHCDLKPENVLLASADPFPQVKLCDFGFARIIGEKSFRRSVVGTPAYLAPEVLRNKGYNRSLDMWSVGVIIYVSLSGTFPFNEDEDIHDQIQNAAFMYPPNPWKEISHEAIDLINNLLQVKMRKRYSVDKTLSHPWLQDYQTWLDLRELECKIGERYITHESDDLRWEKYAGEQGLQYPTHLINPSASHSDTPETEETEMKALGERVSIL
Put plainly: pull-down; HA-PKCμ immunoprecipitated from transfected HEK 293T cells and kept on HA antibody agarose beads; GST-Cx43 or GST in 125 mM Tris-HCl pH 8.0, 150 mM NaCl added, 3 hours at 4°C; beads washed three times with cold PBS; western blot for GST and HA; both purified. On the technique in general: Immunoblotting shows a protein as a band on a membrane.

Chains of the proteins cited; added tags and fusions are not shown.
UniProt P17302: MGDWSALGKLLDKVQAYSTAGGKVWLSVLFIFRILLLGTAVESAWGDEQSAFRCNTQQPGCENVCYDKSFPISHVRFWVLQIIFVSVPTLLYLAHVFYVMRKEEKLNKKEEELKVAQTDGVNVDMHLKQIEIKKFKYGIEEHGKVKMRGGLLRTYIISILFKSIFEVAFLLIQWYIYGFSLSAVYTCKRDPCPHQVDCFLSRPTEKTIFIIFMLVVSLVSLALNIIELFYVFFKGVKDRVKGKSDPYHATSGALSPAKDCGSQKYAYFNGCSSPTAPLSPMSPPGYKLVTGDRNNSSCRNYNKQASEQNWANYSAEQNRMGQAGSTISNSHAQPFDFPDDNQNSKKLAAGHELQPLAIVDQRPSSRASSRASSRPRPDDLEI

No constants are given. Whether binding was seen depends on the method and setting. Some results given as binding are weak or reduced against the parent protein; the word gives no strength. Tags and fused reporters may be left off the sequences shown.

In the case of “GST-Cx43 (glutathione S-transferase fused to the amino-terminus of full-length Connexin 43) (from UniProt P17302 1-382)”, the binding entry is listed as “binds”.

These data come from publication PMC10875573.
